The entries are a selection whose mix differs from that of the whole data set. At the low end of the ranking the order means little.

The target of the assay is T1, FLI1 (UniProt Q01543).
T1 sequence: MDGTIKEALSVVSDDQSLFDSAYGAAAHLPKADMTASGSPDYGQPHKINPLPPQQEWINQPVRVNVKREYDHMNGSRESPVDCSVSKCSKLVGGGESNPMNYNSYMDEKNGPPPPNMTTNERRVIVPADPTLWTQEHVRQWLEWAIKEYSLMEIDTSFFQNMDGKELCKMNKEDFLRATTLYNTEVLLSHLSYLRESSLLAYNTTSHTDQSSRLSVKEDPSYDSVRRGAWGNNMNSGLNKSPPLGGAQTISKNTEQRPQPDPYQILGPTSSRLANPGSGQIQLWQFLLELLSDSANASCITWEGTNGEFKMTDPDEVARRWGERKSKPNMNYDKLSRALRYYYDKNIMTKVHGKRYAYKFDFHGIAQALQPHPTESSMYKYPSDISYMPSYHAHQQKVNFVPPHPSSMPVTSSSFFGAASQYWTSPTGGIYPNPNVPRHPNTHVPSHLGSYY
Nature of the assay: DAPPL (digital affinity profiling via proximity ligation, sequencing). Conditions: 10 mM Tris-HCl pH 7.5, 50 mM NaCl, 1 mM DTT, 4% glycerol, room temperature, 30 min; GST-TFs on glutathione beads, 16-mer random dsDNA library, 0.1% …; high values mean tight binding; double strand, one strand shown; scale: fold enrichment (6-mer frequency, TF over GST control).
As to TGGGTT, the binding signal came out at 1.17.
To ATTAGG belongs 1.06; to ACACCT, 1.1; to GCGGAA, 1.37.
For CGTATA, the binding signal amounted to 1.12.
With GCGACC, the binding signal was 1.09.
As for TTCGAT, the binding signal was 1.32.
Next, AGAAAA: 0.978; CCTAGC: 1.18; CCGAAA: 1.25.
CGCGCT came in with a binding signal of 1.25.
CATTCG yielded a binding signal of 1.25.
Next, AAAAAC: 1.31.
Next, ATTGGT: 1.31.
Next, GTACAC: 1.18.
Take AAGTTC: the binding signal came to 1.36.
To CTGCGT belongs 1.12; to AGATGC, 1.13; to TTCTAT, 1.4.
In turn, TCAAGT came in with a binding signal of 0.993.
To TTTGTG belongs 1.31.
Sequence ATGGGC had a binding signal of 1.28.
To AATGAA belongs 1.11.
For CACGTT, the binding signal stood at 1.28.
CCCTTG showed a binding signal of 1.14.
The sequence GTACGA yielded a binding signal of 1.
Next, CTTTGA: 1.29.
Take AAGCTT: the binding signal worked out at 1.31.
To TCCGTA belongs 1.57; to TACTCC, 1.3.
Sequence TGTGCC had a binding signal of 1.17.
To AATTAC belongs 1.24.
Next, ATTTGT: 1.36; AACACC: 1.19.
Next, CATGGT: 1.25; TACACA: 1.21.
For CCCTTC, the binding signal is 1.55.
To ATTACT belongs 1.3.
TCATCA showed a binding signal of 1.18.

The values above are taken from article PMC7862700.
